Measured values taken from patent US20170283495A1.
Substitutions are numbered along the chain they refer to. Results are given in words; binding and its absence hold for the method and conditions named. Some results given as binding are weak or reduced against the parent protein; the word gives no strength. One block for each binder: values may come before it.

Legend:
[1] = molecular target: murine anti-hepcidin MAb 583; assay: competition ELISA, MAb 583 coated, NT-biotin hepcidin-25 tracer
[2] = molecular target: murine anti-hepcidin MAb 583; assay: competition ELISA, MAb 583 coated, NT-biotin hepcidin-25 tracer 1 ng/well (FIG. 16)
[3] = molecular target: T1, human hepcidin-22 peptide (human); assay: Western blot after non-reducing tricine SDS-PAGE
T1 sequence (peptide): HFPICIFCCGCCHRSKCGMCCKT

[4] = molecular target: T2, NT-biotin hepcidin-25 (human); assay: C-ELISA, NT-biotin hepcidin-25 on neutravidin
T2 sequence (peptide, NT-biotin (biotin label; NT is not spelled out, taken as the N-terminus)): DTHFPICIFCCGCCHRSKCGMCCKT

[5] = molecular target: T3, human hepcidin-25 (synthetic) (human); assay: ELISA, hepcidin-25 covalently bound to maleic anhydride plate
T3 sequence (peptide): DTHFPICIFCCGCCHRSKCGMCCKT

[6] = molecular target: T2, NT-biotin hepcidin-25 (human); assay: C-ELISA, BAP070-01 on Protein G, NT-biotin hepcidin-25 tracer
[7] = molecular target: T3, human hepcidin-25 (synthetic) (human); assay: ELISA, hepcidin-25 100 ng/well on maleic anhydride plate, serially diluted supernatant (FIG. 30)
[8] = molecular target: BAP070-01 human-mouse chimeric MAb 583; assay: C-ELISA, NT-biotin hepcidin-25 on neutravidin
[9] = molecular target: BAP070-01 human-mouse chimeric MAb 583; assay: C-ELISA, BAP070-01 on Protein G, NT-biotin hepcidin-25 tracer

binding [1]: binds
binding [2]: binds
Binder: HFPICIFCCGCCHRSKCGMCCKT [human hepcidin-22 peptide]

binding [3]: binds
B1: murine anti-hepcidin MAb 583 (antibody, V domains shown)
VH: QIQLVQSGPELKKPGETVKISCKASGYTFTNYGMNWVKQAPGKGLKWMGWINTYTGEPTYADDFKGRFAFSLETSASTAYLQINNLKNEDTATYFCTTYATSWYWGQGTTLTVSS
VL: DIVLTQSPASLAVSLGQRATISCRASESVDSYGNSFMHWYQQKPGQPPKLLIYRASNLESGIPARFSGSGSRTDFTLTINPVEADDVATYYCQQSNEDLTFGGGTKLEIK

B2: BAP070-01 human-mouse chimeric MAb 583 (antibody, V domains shown)
VH: B1 VH with T110L, L111V
VL: DIVLTQSPASLAVSLGQRATISCRASESVDSYGNSFMHWYQQKPGQPPKLLIYRASNLESGIPARFSGSGSRTDFTLTINPVEADDVATYYCQQSNEDLTFGQGTKVEIKR
binding [4]: binds
binding [5]: binds
binding [6]: binds
binding [7]: binds

binding [8]: binds
binding [9]: binds
Binder: DTHFPICIFCCGCCHRSKCGMCCKT [human hepcidin-25 (synthetic)]
